{
  "sequences": {"note": "By UniProt entry, the sequences of proteins in these tests, tags left out. Where a name states a change or a piece, a line headed by the entry shows the natural chain unless it says otherwise.", "UniProt Q9Z148, whole entry, stated change not applied": "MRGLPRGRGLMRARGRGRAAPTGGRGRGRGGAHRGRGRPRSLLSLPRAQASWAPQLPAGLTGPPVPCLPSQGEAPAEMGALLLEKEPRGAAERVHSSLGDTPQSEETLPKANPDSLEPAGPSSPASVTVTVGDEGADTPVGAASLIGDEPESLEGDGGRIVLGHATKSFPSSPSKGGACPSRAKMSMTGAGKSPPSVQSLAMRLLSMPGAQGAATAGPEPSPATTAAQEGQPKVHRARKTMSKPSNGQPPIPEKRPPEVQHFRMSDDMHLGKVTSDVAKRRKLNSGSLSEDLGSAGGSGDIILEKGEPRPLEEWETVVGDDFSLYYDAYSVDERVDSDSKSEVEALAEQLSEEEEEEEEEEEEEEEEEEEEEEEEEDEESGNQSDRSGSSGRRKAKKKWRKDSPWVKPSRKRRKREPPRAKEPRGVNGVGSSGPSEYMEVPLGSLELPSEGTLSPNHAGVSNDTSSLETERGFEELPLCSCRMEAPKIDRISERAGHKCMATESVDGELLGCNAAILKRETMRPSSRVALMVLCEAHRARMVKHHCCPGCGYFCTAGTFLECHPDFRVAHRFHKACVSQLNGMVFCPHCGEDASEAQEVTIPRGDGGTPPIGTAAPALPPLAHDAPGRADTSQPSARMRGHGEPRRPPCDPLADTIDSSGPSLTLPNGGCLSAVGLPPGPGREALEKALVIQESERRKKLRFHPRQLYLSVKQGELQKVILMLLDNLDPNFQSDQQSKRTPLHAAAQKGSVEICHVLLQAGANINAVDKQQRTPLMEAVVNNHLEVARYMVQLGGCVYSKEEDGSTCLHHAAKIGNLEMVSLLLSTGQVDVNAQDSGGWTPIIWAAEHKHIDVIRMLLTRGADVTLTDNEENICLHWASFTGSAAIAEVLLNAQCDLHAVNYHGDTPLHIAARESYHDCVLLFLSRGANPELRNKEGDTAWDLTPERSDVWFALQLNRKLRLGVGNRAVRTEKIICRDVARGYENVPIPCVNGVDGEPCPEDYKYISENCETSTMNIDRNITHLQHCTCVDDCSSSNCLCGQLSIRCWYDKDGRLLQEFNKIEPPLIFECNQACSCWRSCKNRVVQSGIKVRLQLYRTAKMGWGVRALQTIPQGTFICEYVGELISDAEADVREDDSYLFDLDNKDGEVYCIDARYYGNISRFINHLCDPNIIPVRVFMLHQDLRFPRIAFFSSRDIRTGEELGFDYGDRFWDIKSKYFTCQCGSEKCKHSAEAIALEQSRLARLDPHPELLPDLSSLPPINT"},
  "source": "paper doi:10.1101/2024.07.03.601885",
  "target": "HA-tagged G9a (UniProt Q9Z148)",
  "experiment": "co-IP",
  "note": "These are yes or no findings as the source states them, for the method shown. In cells and extracts the contact can be indirect. Binding can be weak; no strength is given.",
  "data": [
    {"substance": "mCherry-NPM1ΔDBD (from UniProt Q61937)", "values": [
      {"measurement": "binding", "value": "binds"}
    ]}
  ]
}
